We go through two molecules from paper PMC11427348.

Chains of the proteins cited; added tags and fusions are not shown.
UniProt O60488: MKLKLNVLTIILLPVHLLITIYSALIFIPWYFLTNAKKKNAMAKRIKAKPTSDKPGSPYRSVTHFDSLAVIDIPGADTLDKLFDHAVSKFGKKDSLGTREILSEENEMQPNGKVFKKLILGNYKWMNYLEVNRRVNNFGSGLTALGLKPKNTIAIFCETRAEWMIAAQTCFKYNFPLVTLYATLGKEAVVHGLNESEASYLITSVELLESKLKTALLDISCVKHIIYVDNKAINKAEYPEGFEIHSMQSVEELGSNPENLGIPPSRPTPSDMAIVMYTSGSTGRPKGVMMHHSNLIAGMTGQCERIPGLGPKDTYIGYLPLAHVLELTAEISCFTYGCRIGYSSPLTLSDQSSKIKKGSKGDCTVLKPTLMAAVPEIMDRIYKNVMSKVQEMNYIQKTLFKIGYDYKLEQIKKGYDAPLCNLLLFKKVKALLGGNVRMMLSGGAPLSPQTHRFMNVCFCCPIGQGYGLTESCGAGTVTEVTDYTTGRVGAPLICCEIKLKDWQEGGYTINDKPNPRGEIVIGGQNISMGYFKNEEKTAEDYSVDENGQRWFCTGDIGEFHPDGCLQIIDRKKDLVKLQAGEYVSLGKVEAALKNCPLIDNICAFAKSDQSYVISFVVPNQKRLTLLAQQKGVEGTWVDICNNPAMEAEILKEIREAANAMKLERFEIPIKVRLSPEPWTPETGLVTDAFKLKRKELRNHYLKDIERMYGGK
UniProt Q96LD4: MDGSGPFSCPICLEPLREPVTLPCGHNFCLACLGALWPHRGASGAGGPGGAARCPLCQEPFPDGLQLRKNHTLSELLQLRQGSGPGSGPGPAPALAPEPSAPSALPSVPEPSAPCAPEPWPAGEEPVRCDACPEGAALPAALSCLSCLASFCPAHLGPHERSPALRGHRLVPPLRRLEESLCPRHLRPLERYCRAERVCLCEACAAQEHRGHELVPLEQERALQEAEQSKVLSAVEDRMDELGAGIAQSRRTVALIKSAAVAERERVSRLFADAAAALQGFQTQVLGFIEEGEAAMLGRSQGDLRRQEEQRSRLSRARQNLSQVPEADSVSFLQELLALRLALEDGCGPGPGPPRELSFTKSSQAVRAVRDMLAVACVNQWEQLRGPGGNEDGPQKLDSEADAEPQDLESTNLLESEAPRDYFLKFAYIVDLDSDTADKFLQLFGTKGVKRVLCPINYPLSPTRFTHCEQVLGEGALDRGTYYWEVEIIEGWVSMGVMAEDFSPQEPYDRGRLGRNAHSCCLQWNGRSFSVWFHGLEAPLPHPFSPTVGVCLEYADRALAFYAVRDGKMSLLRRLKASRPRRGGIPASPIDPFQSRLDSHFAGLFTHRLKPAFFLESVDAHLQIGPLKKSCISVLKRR

Results are given in words; binding and its absence hold for the method and conditions named. Binding seen in cells or lysates may run through a third protein. Some entries that bind do so weakly or less than the wild type. For part of these data: Where a sequence is shown, tags or fusion partners need not be part of it.

The target in experiment [1] is Acyl-CoA synthetase long chain family member 4 (ACSL4), endogenous in HONE1 cells (human (endogenous in HONE1)) (UniProt O60488). The experiment can be described thus: co-IP; endogenous proteins in lysates of HONE1 TRCs and bulk cells; immunoprecipitation overnight at 4 °C, Protein A/G magnetic beads, immunoblotting. (In general: A western blot detects proteins with antibodies after separation by electrophoresis.)

For experiment [2], the target named is HA-TRIM47 (UniProt Q96LD4). The experiment can be described thus: co-IP; HEK293T cells transfected with Flag-PCK2 and HA-HERC6 or HA-TRIM47; immunoprecipitation and immunoblot.
For experiment [3], the target named is T1, HA-HERC6 (UniProt Q8IVU3).
T1 sequence: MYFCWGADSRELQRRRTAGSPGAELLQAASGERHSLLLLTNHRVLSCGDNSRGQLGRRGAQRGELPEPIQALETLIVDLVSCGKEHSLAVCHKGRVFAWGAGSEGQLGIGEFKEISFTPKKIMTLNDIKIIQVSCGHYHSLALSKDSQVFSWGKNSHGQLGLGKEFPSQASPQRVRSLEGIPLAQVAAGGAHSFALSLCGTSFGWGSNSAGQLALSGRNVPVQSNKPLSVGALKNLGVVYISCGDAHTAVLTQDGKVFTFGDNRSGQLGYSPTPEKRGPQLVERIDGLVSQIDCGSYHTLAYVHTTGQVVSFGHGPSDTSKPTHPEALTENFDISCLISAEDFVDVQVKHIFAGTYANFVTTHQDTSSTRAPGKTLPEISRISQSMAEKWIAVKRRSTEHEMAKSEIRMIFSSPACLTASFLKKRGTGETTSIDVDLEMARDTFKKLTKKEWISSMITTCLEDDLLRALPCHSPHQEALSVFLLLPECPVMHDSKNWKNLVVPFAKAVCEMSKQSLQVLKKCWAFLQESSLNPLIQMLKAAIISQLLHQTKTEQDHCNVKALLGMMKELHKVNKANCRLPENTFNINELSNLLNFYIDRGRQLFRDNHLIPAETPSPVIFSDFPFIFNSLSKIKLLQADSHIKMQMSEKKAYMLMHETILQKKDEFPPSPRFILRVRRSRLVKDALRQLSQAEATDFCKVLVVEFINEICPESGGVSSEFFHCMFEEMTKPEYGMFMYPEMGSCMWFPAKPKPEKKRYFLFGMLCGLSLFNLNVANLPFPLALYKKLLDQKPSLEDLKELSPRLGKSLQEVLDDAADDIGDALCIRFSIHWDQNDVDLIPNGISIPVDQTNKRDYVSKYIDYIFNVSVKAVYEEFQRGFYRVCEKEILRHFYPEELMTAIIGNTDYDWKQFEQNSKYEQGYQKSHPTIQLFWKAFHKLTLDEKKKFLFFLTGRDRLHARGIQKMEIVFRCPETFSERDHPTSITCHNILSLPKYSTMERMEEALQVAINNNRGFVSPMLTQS
The description is as above.

B1: Mitochondrial phosphoenolpyruvate carboxykinase 2 (PCK2), endogenous in HONE1 cells (protein, UniProt Q16822 33-640)
chain: LSGDLGQLPTGIRDFVEHSARLCQPEGIHICDGTEAENTATLTLLEQQGLIRKLPKYNNCWLARTDPKDVARVESKTVIVTPSQRDTVPLPPGGARGQLGNWMSPADFQRAVDERFPGCMQGRTMYVLPFSMGPVGSPLSRIGVQLTDSAYVVASMRIMTRLGTPVLQALGDGDFVKCLHSVGQPLTGQGEPVSQWPCNPEKTLIGHVPDQREIISFGSGYGGNSLLGKKCFALRIASRLARDEGWLAEHMLILGITSPAGKKRYVAAAFPSACGKTNLAMMRPALPGWKVECVGDDIAWMRFDSEGRLRAINPENGFFGVAPGTSATTNPNAMATIQSNTIFTNVAETSDGGVYWEGIDQPLPPGVTVTSWLGKPWKPGDKEPCAHPNSRFCAPARQCPIMDPAWEAPEGVPIDAIIFGGRRPKGVPLVYEAFNWRHGVFVGSAMRSESTAAAEHKGKIIMHDPFAMRPFFGYNFGHYLEHWLSMEGRKGAQLPRIFHVNWFRRDEAGHFLWPGFGENARVLDWICRRLEGEDSARETPIGLVPKEGALDLSGLRAIDTTQLFSLPKDFWEQEVRDIRSYLTEQVNQDLPKEVLAELEALERRVHKM
In the case of B1, in experiment [1], the binding entry was “binds”.

B2: Flag-PCK2 (protein, UniProt Q16822 33-640)
chain: B1 chain
Take B2: the binding result is “no binding” in experiment [2] and “binds” in experiment [3].
